Measurements reported in PubChem BioAssay AID743121 (NCATS, 2013)

- Aim: 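Partners whose loss is lethal together with topoisomerase I blockade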 (primary screen)
- Cells: MDA-MB-231 cells, a human breast cancer line
- Reagent: single siRNA against human genes, 20 nM siRNA (0.8 pmol per well)
- Timing: 120 h (drug added 48 h after transfection, read 72 h later)
- Challenge: camptothecin 20 nM (about EC30) for 72 h; vehicle 0.1% DMSO in parallel plates
- Measurement: 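CellTiter-Glo ATP signal, scaled to control siRNA as percent viability; sensitisation given as log2 of untreated divided by camptothecin-treated viability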
- Reading the numbers: log2 vehicle/camptothecin viability: higher = stronger sensitisation to camptothecin; viability with camptothecin and viability without drug: higher = more viable cells
- Active means: 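Active genes have an RSA gene-level p-value below 0.001, computed from the ratios of their separate siRNAs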
The whole screen tested about 26,000 reagents; this is a random part of them. 167 of all reagents (0.63%) were called active. 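Calls are per gene from RSA p-values that are not deposited; an individual active-marked siRNA can sensitise only weakly.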 Unmarked entries are inactive. The numbers tell different reagents against one gene apart.

| Target gene | siRNA no. | log2 vehicle/camptothecin viability | viability with camptothecin (% of control) | viability without drug (% of control) |
| --- | --- | --- | --- | --- |
| S1PR3 | 1 | -0.215 | 51.2 | 44.1 |
| S1PR3 | 2 | -0.298 | 65 | 52.9 |
| S1PR3 | 3 | 0.528 | 30.4 | 43.8 |
| S1PR3 | 4 | -0.406 | 84.3 | 63.6 |
| FEM1B | 1 | 0.0763 | 95.2 | 100 |
| FEM1B | 2 | 0.0249 | 67.7 | 68.9 |
| FEM1B | 3 | -0.266 | 114 | 95.2 |
| FEM1B | 4 | -0.0998 | 108 | 100 |
| IHH | 1 | -0.00166 | 96.1 | 96 |
| IHH | 2 | -0.125 | 25.2 | 23.1 |
| IHH | 3 | -0.243 | 84.9 | 71.7 |
| IHH | 4 | -0.0443 | 85.4 | 82.8 |
| RBFOX2 | 1 | -0.202 | 101 | 87.5 |
| RBFOX2 | 2 | 0.00631 | 82.6 | 83 |
| RBFOX2 | 3 | -0.213 | 122 | 105 |
| RBFOX2 | 4 | 0.711 | 30.4 | 49.7 |
| ENPP1 | 1 | -0.565 | 79.9 | 54 |
| ENPP1 | 2 | 0.27 | 38.7 | 46.6 |
| ENPP1 | 3 | 0.106 | 89.6 | 96.4 |
| ENPP1 | 4 | 0.562 | 50.8 | 75 |
| OR8U1 | 1 | -0.225 | 70.4 | 60.2 |
| OR8U1 | 2 | -0.653 | 97.7 | 62.1 |
| OR8U1 | 3 | 0.454 | 50 | 68.4 |
| OR8U1 | 4 | 0.0951 | 45.1 | 48.2 |
| RGS19 | 1 | -0.132 | 113 | 103 |
| RGS19 | 2 | -0.0963 | 114 | 107 |
| RGS19 | 3 | 0.291 | 48.4 | 59.2 |
| RGS19 | 4 | 0.305 | 69.7 | 86.1 |
| P2RY11 | 1 | -0.816 | 16.4 | 9.3 |
| P2RY11 | 2 | -0.379 | 89.2 | 68.6 |
| P2RY11 | 3 | 0.589 | 11.3 | 16.9 |
| P2RY11 | 4 | -0.474 | 53.3 | 38.4 |
| RFFL | 1 | -0.429 | 57.5 | 42.7 |
| RFFL | 2 | -0.296 | 81.6 | 66.5 |
| RFFL | 3 | 0.123 | 67.8 | 73.9 |
| RFFL | 4 | 0.347 | 27.7 | 35.2 |
| L1CAM | 1 | 0.101 | 84.8 | 90.9 |
| L1CAM | 2 | -0.341 | 69.6 | 55 |
| L1CAM | 3 | -0.067 | 92.6 | 88.4 |
| L1CAM | 4 | -0.465 | 1.85 | 1.34 |
| IL23R | 1 | 0.153 | 91.2 | 101 |
| IL23R | 2 | -0.251 | 87.4 | 73.4 |
| IL23R | 3 | 0.0386 | 76.6 | 78.7 |
| IL23R | 4 | -0.0234 | 96.6 | 95.1 |
| MUC4 | 1 | 0.21 | 74 | 85.6 |
| MUC4 | 2 | -0.459 | 89.8 | 65.3 |
| MUC4 | 3 | -0.395 | 55.2 | 42 |
| AKR1C1 | 1 | 0.28 | 54.4 | 66 |
| AKR1C1 | 2 | 0.165 | 63.5 | 71.2 |
| AKR1C1 | 3 | -0.0344 | 80.2 | 78.3 |
| AKR1C1 | 4 | 0.494 | 47.7 | 67.3 |
| AKR1C1 | 5 | -0.0793 | 94 | 88.9 |
| ATP2C1 | 1 | -0.169 | 86.9 | 77.3 |
| ATP2C1 | 2 | 0.0325 | 40.9 | 41.8 |
| ATP2C1 | 3 | -0.414 | 112 | 83.8 |
| WASF3 | 1 | 0.623 | 9.08 | 14 |
| WASF3 | 2 | -0.191 | 87.8 | 76.9 |
| WASF3 | 3 | -0.101 | 94.1 | 87.7 |
| WASF3 | 4 | 0.0835 | 55.3 | 58.6 |
| SIRT1 | 1 | 0.132 | 103 | 113 |
| SIRT1 | 2 | 0.688 | 42.2 | 67.9 |
| SIRT1 | 3 | -0.0918 | 115 | 108 |
| SIRT1 | 4 | -0.447 | 65.5 | 48.1 |
| OSM | 1 | -0.0449 | 113 | 110 |
| OSM | 2 | 0.133 | 54.2 | 59.5 |
| OSM | 3 | -0.193 | 103 | 89.7 |
| OSM | 4 | 0.264 | 53.5 | 64.3 |
| DAPP1 | 1 | -0.326 | 91.1 | 72.7 |
| DAPP1 | 2 | -0.392 | 83.7 | 63.8 |
| DAPP1 | 3 | 0.232 | 35 | 41.1 |
| DAPP1 | 4 | -0.0696 | 102 | 96.7 |
| DAPP1 | 5 | -0.323 | 126 | 101 |

Copied from the entries so far (10 entries):
| Target gene | siRNA no. | log2 vehicle/camptothecin viability | viability with camptothecin (% of control) | viability without drug (% of control) |
| --- | --- | --- | --- | --- |
| RFFL | 4 | 0.347 | 27.7 | 35.2 |
| L1CAM | 1 | 0.101 | 84.8 | 90.9 |
| L1CAM | 2 | -0.341 | 69.6 | 55 |
| L1CAM | 3 | -0.067 | 92.6 | 88.4 |
| L1CAM | 4 | -0.465 | 1.85 | 1.34 |
| IL23R | 1 | 0.153 | 91.2 | 101 |
| IL23R | 2 | -0.251 | 87.4 | 73.4 |
| IL23R | 3 | 0.0386 | 76.6 | 78.7 |
| IL23R | 4 | -0.0234 | 96.6 | 95.1 |
| MUC4 | 1 | 0.21 | 74 | 85.6 |
